Measurements published in PubChem BioAssay AID186 (DTP/NCI, 2004).
The mice bore no tumour; each value counts animals alive of those treated. Survivors were counted at the toxicity check, usually on the fifth day, unless a day is given; later deaths do not show. Schedule codes are those of the source, taken here to give the interval after Q, in days (D) or hours (H), and the number of doses after X. Counts like (3×) say how often a value occurs here. Some entries were tested several times; the values are given in rising order.

Test system: B6D2F1 mice, nontumored toxicity test, survival
Assay: NCI In Vivo Anticancer Drug Screen. Data for tumor model Nontumored Animals (Toxicity Test) in B6D2F1 (BDF1) mice

Measured: survivor count

CNc1nc(N(C)C)nc(N(C)C)n1
2 of 10: dose: 400.0 mg/kg/injection, schedule: Q01DX001 (ip), vehicle: water | dose: 400.0 mg/kg/injection, schedule: Q08DX003 (ip), vehicle: water
9 of 10: dose: 50.0 mg/kg/injection, schedule: Q04DX005 (ip), vehicle: water | dose: 200.0 mg/kg/injection, schedule: Q08DX003 (ip), vehicle: water
9 of 10 and 10 of 10: dose: 30.0 mg/kg/injection, schedule: Q01DX009 (ip), vehicle: water
10 of 10: dose: 3.75 mg/kg/injection, schedule: Q03HX008 (ip), vehicle: water | dose: 3.75 mg/kg/injection, schedule: Q08DX024 (ip), vehicle: water | dose: 6.25 mg/kg/injection, schedule: Q04DX005 (iv), vehicle: water | dose: 7.5 mg/kg/injection, schedule: Q01DX009 (ip), vehicle: water | dose: 7.5 mg/kg/injection, schedule: Q01DX017 (ip), vehicle: water | dose: 7.5 mg/kg/injection, schedule: Q01DX017 (sc), vehicle: water | dose: 7.5 mg/kg/injection, schedule: Q03HX008 (ip), vehicle: water | dose: 7.5 mg/kg/injection, schedule: Q08DX024 (ip), vehicle: water | dose: 12.5 mg/kg/injection, schedule: Q04DX005 (ip), vehicle: water | dose: 12.5 mg/kg/injection, schedule: Q04DX005 (iv), vehicle: water | dose: 13.0 mg/kg/injection, schedule: Q01DX009 (ip), vehicle: water | dose: 15.0 mg/kg/injection, schedule: Q01DX009 (ip), vehicle: water | dose: 15.0 mg/kg/injection, schedule: Q01DX017 (ip), vehicle: water | dose: 15.0 mg/kg/injection, schedule: Q01DX017 (oral), vehicle: water | dose: 15.0 mg/kg/injection, schedule: Q01DX017 (sc), vehicle: water | dose: 15.0 mg/kg/injection, schedule: Q03HX008 (ip), vehicle: water | dose: 15.0 mg/kg/injection, schedule: Q08DX024 (ip), vehicle: water | dose: 20.0 mg/kg/injection, schedule: Q01DX009 (ip), vehicle: water | dose: 20.0 mg/kg/injection, schedule: Q04DX003 (ip), vehicle: water | dose: 25.0 mg/kg/injection, schedule: Q01DX001 (ip), vehicle: water | dose: 25.0 mg/kg/injection, schedule: Q01DX001 (oral), vehicle: water | dose: 25.0 mg/kg/injection, schedule: Q04DX005 (ip), vehicle: water | dose: 25.0 mg/kg/injection, schedule: Q04DX005 (iv), vehicle: water | dose: 25.0 mg/kg/injection, schedule: Q08DX003 (ip), vehicle: water | dose: 30.0 mg/kg/injection, schedule: Q01DX017 (ip), vehicle: water | dose: 30.0 mg/kg/injection, schedule: Q01DX017 (oral), vehicle: water | dose: 30.0 mg/kg/injection, schedule: Q01DX017 (sc), vehicle: water | dose: 30.0 mg/kg/injection, schedule: Q03HX008 (ip), vehicle: water | dose: 30.0 mg/kg/injection, schedule: Q04DX003 (ip), vehicle: water | dose: 30.0 mg/kg/injection, schedule: Q08DX024 (ip), vehicle: water | dose: 44.0 mg/kg/injection, schedule: Q01DX009 (ip), vehicle: water | dose: 44.0 mg/kg/injection, schedule: Q04DX003 (ip), vehicle: water | dose: 50.0 mg/kg/injection, schedule: Q01DX001 (ip), vehicle: water | dose: 50.0 mg/kg/injection, schedule: Q01DX001 (oral), vehicle: water | dose: 50.0 mg/kg/injection, schedule: Q04DX005 (iv), vehicle: water | dose: 50.0 mg/kg/injection, schedule: Q08DX003 (ip), vehicle: water | dose: 60.0 mg/kg/injection, schedule: Q01DX009 (ip), vehicle: water | dose: 60.0 mg/kg/injection, schedule: Q01DX017 (ip), vehicle: water | dose: 60.0 mg/kg/injection, schedule: Q01DX017 (oral), vehicle: water | dose: 60.0 mg/kg/injection, schedule: Q01DX017 (sc), vehicle: water | dose: 60.0 mg/kg/injection, schedule: Q03HX008 (ip), vehicle: water | dose: 60.0 mg/kg/injection, schedule: Q08DX024 (ip), vehicle: water | dose: 67.0 mg/kg/injection, schedule: Q01DX009 (ip), vehicle: water | dose: 67.0 mg/kg/injection, schedule: Q04DX003 (ip), vehicle: water | dose: 100.0 mg/kg/injection, schedule: Q01DX001 (ip), vehicle: water | dose: 100.0 mg/kg/injection, schedule: Q01DX001 (oral), vehicle: water | dose: 100.0 mg/kg/injection, schedule: Q01DX009 (ip), vehicle: water | dose: 100.0 mg/kg/injection, schedule: Q04DX003 (ip), vehicle: water | dose: 100.0 mg/kg/injection, schedule: Q04DX005 (ip), vehicle: water | dose: 100.0 mg/kg/injection, schedule: Q04DX005 (iv), vehicle: water | dose: 100.0 mg/kg/injection, schedule: Q08DX003 (ip), vehicle: water | dose: 120.0 mg/kg/injection, schedule: Q01DX009 (ip), vehicle: water | dose: 120.0 mg/kg/injection, schedule: Q01DX017 (ip), vehicle: water | dose: 120.0 mg/kg/injection, schedule: Q01DX017 (oral), vehicle: water | dose: 120.0 mg/kg/injection, schedule: Q01DX017 (sc), vehicle: water | dose: 150.0 mg/kg/injection, schedule: Q04DX003 (ip), vehicle: water | dose: 200.0 mg/kg/injection, schedule: Q01DX001 (ip), vehicle: water | dose: 200.0 mg/kg/injection, schedule: Q01DX001 (oral), vehicle: water | dose: 200.0 mg/kg/injection, schedule: Q04DX005 (ip), vehicle: water | dose: 240.0 mg/kg/injection, schedule: Q01DX017 (oral), vehicle: water | dose: 400.0 mg/kg/injection, schedule: Q01DX001 (oral), vehicle: water

C=CN1CCCC1=O
10 of 10: dose: 1.9 grams/kg/injection, schedule: Q01DX001 (iv), vehicle: saline | dose: 1.9 grams/kg/injection, schedule: Q01DX005 (iv), vehicle: saline | dose: 1.9 grams/kg/injection, schedule: Q04DX003 (iv), vehicle: saline | dose: 3.8 grams/kg/injection, schedule: Q01DX001 (ip), vehicle: saline | dose: 3.8 grams/kg/injection, schedule: Q01DX001 (iv), vehicle: saline | dose: 3.8 grams/kg/injection, schedule: Q01DX005 (ip), vehicle: saline | dose: 3.8 grams/kg/injection, schedule: Q01DX005 (iv), vehicle: saline | dose: 3.8 grams/kg/injection, schedule: Q01DX009 (ip), vehicle: saline | dose: 3.8 grams/kg/injection, schedule: Q03HX008 (ip), vehicle: saline | dose: 3.8 grams/kg/injection, schedule: Q03HX016 (ip), vehicle: saline | dose: 3.8 grams/kg/injection, schedule: Q03HX024 (ip), vehicle: saline | dose: 3.8 grams/kg/injection, schedule: Q04DX003 (ip), vehicle: saline | dose: 3.8 grams/kg/injection, schedule: Q04DX003 (iv), vehicle: saline | dose: 3.8 grams/kg/injection, schedule: Q08DX002 (ip), vehicle: saline | dose: 7.5 grams/kg/injection, schedule: Q01DX001 (ip), vehicle: saline | dose: 7.5 grams/kg/injection, schedule: Q01DX001 (iv), vehicle: saline | dose: 7.5 grams/kg/injection, schedule: Q01DX005 (ip), vehicle: saline | dose: 7.5 grams/kg/injection, schedule: Q01DX005 (iv), vehicle: saline | dose: 7.5 grams/kg/injection, schedule: Q01DX009 (ip), vehicle: saline | dose: 7.5 grams/kg/injection, schedule: Q03HX008 (ip), vehicle: saline | dose: 7.5 grams/kg/injection, schedule: Q03HX016 (ip), vehicle: saline | dose: 7.5 grams/kg/injection, schedule: Q03HX024 (ip), vehicle: saline | dose: 7.5 grams/kg/injection, schedule: Q04DX003 (ip), vehicle: saline | dose: 7.5 grams/kg/injection, schedule: Q04DX003 (iv), vehicle: saline | dose: 7.5 grams/kg/injection, schedule: Q08DX002 (ip), vehicle: saline

COC1C(NC(=O)N(CCCl)N=O)C(OC(C)=O)OC(COC(C)=O)C1OC(C)=O (stereo not given)
9 of 9 (2×): dose: 4.0 mg/kg/injection, schedule: Q01DX001 (ip), vehicle: saline with Tween-80
10 of 10 (2×): dose: 1.8 mg/kg/injection, schedule: Q01DX001 (ip), vehicle: saline with Tween-80 | dose: 2.6 mg/kg/injection, schedule: Q01DX001 (ip), vehicle: saline with Tween-80 | dose: 6.0 mg/kg/injection, schedule: Q01DX001 (ip), vehicle: saline with Tween-80
